Assay results reported in patent US12122830 (ABL BIO, dated 2024).
These are yes or no findings as the source states them, for the method shown. Some binding calls cover weakened binding; strength is not graded here.

Sequences of proteins named here, by UniProt entry; tags and fusion partners are left off. A change or cut given only in a name is not applied to a line headed by its entry. Residues count along the entry.
UniProt Q9Z139: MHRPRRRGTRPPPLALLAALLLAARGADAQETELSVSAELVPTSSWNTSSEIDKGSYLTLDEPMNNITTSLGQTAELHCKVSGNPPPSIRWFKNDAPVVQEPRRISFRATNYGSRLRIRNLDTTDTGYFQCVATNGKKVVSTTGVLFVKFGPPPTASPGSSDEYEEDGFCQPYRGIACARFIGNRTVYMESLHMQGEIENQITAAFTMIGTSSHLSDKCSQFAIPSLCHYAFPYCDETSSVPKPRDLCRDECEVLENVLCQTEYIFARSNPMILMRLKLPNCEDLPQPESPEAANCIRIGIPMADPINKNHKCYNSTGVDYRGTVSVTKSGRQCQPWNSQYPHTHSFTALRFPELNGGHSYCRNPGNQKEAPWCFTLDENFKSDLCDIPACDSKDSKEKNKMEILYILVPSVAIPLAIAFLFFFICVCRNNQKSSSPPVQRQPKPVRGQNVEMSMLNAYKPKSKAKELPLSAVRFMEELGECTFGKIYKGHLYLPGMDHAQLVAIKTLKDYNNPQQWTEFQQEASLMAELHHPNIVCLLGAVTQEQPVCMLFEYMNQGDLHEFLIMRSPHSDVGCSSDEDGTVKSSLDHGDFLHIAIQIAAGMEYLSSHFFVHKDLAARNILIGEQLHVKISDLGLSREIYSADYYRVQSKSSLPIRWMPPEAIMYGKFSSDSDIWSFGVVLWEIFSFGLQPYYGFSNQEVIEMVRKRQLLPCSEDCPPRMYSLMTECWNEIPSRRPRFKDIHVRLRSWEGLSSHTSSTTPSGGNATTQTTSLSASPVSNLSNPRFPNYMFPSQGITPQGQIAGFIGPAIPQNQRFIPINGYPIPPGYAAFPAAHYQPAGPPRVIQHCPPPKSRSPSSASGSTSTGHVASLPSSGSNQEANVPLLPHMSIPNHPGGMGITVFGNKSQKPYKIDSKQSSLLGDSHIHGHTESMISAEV
mouse ROR1 expressed on the cell surface (CHO-mouse ROR1): residues 30-937 of Q9Z139
recombinant mouse ROR1 protein (Acrobiosystems, RO1-M5221): residues 30-406 of Q9Z139
UniProt Q01973: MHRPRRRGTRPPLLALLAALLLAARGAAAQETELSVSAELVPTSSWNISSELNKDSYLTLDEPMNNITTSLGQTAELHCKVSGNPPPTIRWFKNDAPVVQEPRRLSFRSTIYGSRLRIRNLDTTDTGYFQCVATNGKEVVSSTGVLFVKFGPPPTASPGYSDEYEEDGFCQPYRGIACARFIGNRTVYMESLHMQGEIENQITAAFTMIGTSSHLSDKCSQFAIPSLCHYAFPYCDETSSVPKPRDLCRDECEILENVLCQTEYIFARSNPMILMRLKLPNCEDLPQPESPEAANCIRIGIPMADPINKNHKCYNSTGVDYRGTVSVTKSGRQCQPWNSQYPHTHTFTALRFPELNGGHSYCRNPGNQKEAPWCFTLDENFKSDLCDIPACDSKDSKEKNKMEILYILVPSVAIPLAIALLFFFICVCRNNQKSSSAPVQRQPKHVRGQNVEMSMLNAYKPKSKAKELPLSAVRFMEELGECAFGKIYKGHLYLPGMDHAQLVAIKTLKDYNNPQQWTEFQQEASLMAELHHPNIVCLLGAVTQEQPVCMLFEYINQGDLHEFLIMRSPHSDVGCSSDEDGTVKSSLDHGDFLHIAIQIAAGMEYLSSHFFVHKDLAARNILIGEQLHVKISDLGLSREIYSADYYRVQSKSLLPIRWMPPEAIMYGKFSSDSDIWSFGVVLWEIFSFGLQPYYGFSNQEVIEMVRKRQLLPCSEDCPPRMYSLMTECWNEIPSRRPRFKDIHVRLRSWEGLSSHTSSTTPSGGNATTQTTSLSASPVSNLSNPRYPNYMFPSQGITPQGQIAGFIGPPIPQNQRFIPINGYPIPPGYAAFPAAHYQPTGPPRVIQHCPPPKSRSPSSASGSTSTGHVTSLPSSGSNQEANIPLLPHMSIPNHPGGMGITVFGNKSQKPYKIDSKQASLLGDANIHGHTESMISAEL
recombinant ROR1-His (Sino Biological, 13968-H08H): residues 30-406 of Q01973

Tests used:
[1] = target: mouse ROR1 expressed on the cell surface (CHO-mouse ROR1) (mouse) (UniProt Q9Z139); assay: flow cytometry on CHO-mouse ROR1 cells
[2] = target: recombinant mouse ROR1 protein (Acrobiosystems, RO1-M5221) (mouse) (UniProt Q9Z139); assay: ELISA, IgG on coated recombinant mouse ROR1
[3] = target: T1, human ROR1 expressed on the cell surface (human, UniProt Q01973 30-937); assay: flow cytometry on CHO-human ROR1 cells (FIG. 5)
T1 construct: whole, on cells; On JeKo-1 and Mino cells and other cancer cell lines (endogenous) and on transfected CHO and MC38 cells; also called cell surface-expressed ROR1; CHO-human ROR1

[4] = target: mouse ROR1 expressed on the cell surface (CHO-mouse ROR1) (mouse) (UniProt Q9Z139); assay: flow cytometry on CHO-mouse ROR1 cells (FIG. 5)
[5] = target: T1, human ROR1 expressed on the cell surface; assay: flow cytometry on JeKo-1 and Mino cells (FIG. 6)
[6] = target: T1, human ROR1 expressed on the cell surface; assay: flow cytometry on MC38 human ROR1 cells (FIG. 7)
[7] = target: recombinant mouse ROR1 protein (Acrobiosystems, RO1-M5221) (mouse) (UniProt Q9Z139); assay: ELISA, IgG on coated recombinant mouse ROR1 (FIG. 4)
[8] = target: recombinant ROR1-His (Sino Biological, 13968-H08H) (human) (UniProt Q01973); assay: ELISA, IgG on coated human ROR1 (ROR1-Fc or ROR1-His)
[9] = target: recombinant ROR1-His (Sino Biological, 13968-H08H) (human) (UniProt Q01973); assay: ELISA, IgG on coated human ROR1 (ROR1-Fc or ROR1-His) (FIGS. 3a and 3b)
[10] = target: T1, human ROR1 expressed on the cell surface; assay: flow cytometry on JeKo-1, Mino, CHO-human ROR1 and MC38-human ROR1 cells
[11] = target: recombinant ROR1-His (Sino Biological, 13968-H08H) (human) (UniProt Q01973); assay: ELISA, human ROR1 protein coated at 1 µg/ml (text: ROR1-Fc or ROR1-His, not said which), IgG titrated, HRP anti-Fab detection

Measured: binding

B1: A2F2 M1 anti-ROR1 IgG antibody (antibody, V domains shown)
VH: EVQLLESGGGLVQPGGSLRLSCAASGFTFSDYYMSWVRQAPGKGLEWVSSISPDASNTYYADSVKGRFTISRDNSKNTLYLQMNSLRAEDTAVYYCAKNLRAFDYWGQGTLVTVSS
VL: QSVLTQPPPASGTPGQRVTISCSGSSSNIGSNTVYWYQQLPGTAPKLLIYANSQRPSGVPDRFSGSKSGTSASLAISGLRSEDEADYYCGSWDYSLSGYVFGGGTKLTVLG
binds: all assays above
